pIC50, pKd: −log10 of the molar value.
Molecular target: T1, Dyrk1B (Homo sapiens, UniProt Q9Y463)
T1 construct: purchased Life Technologies PV4649 (LOT # 877059G)
Test: Dyrk1B kinase assay (32P-ATP, Woodtide)
Type: biochemical

Chains of the proteins cited; added tags and fusions are not shown.
UniProt Q9Y463, whole entry: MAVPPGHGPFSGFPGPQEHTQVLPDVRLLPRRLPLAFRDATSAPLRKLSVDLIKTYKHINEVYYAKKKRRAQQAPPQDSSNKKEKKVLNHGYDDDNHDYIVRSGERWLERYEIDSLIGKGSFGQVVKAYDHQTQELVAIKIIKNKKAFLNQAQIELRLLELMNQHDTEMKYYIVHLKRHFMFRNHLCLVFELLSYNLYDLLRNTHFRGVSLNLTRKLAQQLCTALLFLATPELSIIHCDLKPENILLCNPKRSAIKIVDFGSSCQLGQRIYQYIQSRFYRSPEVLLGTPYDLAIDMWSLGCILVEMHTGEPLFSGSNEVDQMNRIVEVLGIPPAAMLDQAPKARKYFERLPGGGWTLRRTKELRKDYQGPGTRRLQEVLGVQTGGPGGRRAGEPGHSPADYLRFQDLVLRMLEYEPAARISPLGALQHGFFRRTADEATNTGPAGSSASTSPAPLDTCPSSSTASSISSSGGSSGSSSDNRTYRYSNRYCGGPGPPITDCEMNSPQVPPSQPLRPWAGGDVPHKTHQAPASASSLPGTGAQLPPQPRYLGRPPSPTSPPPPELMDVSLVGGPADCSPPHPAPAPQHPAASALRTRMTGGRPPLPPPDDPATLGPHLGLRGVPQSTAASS

Work on `COc1ccc2c(c1)[nH]c1c(C)nccc12` [Harmine, harmine, reference compound] yielded a pKd of 6.84 and a pIC50 (IC50 Dyrk1B, 100 µM ATP) of 6.64.
